# Results published in the supplement of paper PMC12819154, “High-throughput peptide-centric local stability assay extends protein–ligand identification to membrane proteins, tissues and bacteria” (Nature Structural & Molecular Biology, 2025).
# Sequences of proteins named here, by UniProt entry; tags and fusion partners are left off. A change or cut given only in a name is not applied to a line headed by its entry.
# UniProt P41250: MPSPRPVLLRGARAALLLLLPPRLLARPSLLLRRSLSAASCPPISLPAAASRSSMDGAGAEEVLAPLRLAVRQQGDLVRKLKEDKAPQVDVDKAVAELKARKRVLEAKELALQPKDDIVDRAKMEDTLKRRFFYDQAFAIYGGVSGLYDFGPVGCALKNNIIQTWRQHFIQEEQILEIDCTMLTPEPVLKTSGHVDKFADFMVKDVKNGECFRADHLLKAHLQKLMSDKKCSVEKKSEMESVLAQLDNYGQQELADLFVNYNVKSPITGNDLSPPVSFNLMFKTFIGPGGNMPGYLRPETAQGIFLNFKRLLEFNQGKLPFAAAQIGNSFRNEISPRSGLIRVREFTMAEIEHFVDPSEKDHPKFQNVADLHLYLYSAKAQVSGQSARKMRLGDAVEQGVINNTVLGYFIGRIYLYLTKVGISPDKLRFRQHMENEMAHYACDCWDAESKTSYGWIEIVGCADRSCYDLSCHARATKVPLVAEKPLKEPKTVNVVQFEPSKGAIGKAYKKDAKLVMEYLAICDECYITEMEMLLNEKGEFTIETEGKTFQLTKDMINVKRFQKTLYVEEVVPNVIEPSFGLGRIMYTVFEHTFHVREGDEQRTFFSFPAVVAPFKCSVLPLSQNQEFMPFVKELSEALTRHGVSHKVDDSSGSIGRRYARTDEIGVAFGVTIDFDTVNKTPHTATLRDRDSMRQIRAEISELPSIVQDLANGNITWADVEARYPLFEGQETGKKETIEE
# UniProt P36405: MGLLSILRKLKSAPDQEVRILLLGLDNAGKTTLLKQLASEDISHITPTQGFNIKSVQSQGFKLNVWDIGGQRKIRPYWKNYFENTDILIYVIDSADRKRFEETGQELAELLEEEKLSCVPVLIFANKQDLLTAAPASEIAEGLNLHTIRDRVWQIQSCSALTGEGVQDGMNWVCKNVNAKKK
# UniProt P41002: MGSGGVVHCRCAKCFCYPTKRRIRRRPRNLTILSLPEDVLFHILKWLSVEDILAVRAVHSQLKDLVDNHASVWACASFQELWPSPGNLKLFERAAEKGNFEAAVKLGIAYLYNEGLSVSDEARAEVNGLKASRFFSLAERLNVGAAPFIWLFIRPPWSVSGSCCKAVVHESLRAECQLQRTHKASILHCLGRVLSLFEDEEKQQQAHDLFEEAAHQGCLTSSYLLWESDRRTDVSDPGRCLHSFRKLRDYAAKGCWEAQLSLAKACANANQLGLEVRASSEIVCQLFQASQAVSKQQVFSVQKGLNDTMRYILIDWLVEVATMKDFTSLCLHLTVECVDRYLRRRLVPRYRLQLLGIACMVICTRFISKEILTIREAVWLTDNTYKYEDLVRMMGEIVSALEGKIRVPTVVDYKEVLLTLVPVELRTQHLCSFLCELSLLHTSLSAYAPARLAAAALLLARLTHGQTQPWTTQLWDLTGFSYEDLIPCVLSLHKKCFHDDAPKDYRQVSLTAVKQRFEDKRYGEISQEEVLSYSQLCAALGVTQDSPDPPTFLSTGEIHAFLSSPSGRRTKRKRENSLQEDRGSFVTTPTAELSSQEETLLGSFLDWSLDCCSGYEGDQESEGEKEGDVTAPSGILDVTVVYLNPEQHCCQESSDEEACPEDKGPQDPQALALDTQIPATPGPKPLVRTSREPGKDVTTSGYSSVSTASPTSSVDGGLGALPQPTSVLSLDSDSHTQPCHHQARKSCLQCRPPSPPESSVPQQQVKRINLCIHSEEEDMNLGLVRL
# UniProt P38432, whole entry: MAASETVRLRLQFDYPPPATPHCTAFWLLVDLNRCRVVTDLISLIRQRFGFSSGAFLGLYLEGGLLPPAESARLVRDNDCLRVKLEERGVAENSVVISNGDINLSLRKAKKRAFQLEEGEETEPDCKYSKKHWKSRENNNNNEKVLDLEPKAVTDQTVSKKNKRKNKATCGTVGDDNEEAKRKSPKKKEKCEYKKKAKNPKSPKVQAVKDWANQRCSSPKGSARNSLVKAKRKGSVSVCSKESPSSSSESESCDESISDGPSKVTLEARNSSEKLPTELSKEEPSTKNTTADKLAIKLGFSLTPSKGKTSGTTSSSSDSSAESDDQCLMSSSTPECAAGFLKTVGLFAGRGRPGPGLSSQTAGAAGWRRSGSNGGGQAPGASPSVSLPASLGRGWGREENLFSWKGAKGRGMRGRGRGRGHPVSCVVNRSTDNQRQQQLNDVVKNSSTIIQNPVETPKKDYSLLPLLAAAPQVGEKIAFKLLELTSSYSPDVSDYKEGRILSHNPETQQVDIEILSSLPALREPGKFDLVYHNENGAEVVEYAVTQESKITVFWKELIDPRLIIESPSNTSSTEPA
# UniProt P35250, whole entry: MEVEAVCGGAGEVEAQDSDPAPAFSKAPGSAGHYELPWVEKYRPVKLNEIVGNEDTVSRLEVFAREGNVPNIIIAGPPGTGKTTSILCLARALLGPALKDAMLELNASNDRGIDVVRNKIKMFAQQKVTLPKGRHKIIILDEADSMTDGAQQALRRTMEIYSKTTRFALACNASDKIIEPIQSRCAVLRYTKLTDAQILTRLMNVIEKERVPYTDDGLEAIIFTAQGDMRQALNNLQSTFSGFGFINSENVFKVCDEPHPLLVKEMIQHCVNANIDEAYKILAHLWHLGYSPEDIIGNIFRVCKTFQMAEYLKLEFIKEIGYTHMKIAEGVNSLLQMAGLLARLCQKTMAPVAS
# UniProt P45973, whole entry: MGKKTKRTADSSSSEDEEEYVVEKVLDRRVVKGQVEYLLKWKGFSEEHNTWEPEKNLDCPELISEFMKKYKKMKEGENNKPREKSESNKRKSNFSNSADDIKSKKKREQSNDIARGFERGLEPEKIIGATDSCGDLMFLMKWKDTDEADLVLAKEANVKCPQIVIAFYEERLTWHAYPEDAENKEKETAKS
# UniProt P35716: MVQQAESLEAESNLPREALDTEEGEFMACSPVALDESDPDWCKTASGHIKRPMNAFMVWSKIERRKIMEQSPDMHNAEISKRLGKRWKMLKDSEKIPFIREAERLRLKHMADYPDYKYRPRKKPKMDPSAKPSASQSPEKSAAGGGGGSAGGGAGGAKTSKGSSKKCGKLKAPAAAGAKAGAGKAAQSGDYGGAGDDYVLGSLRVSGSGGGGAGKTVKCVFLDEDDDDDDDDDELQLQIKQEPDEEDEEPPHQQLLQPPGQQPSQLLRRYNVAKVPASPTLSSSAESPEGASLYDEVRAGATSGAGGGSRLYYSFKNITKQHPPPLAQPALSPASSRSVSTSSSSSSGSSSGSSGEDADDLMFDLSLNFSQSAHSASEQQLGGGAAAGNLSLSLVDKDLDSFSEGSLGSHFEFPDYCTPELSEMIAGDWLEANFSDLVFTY
# UniProt P35499, whole entry, looked up: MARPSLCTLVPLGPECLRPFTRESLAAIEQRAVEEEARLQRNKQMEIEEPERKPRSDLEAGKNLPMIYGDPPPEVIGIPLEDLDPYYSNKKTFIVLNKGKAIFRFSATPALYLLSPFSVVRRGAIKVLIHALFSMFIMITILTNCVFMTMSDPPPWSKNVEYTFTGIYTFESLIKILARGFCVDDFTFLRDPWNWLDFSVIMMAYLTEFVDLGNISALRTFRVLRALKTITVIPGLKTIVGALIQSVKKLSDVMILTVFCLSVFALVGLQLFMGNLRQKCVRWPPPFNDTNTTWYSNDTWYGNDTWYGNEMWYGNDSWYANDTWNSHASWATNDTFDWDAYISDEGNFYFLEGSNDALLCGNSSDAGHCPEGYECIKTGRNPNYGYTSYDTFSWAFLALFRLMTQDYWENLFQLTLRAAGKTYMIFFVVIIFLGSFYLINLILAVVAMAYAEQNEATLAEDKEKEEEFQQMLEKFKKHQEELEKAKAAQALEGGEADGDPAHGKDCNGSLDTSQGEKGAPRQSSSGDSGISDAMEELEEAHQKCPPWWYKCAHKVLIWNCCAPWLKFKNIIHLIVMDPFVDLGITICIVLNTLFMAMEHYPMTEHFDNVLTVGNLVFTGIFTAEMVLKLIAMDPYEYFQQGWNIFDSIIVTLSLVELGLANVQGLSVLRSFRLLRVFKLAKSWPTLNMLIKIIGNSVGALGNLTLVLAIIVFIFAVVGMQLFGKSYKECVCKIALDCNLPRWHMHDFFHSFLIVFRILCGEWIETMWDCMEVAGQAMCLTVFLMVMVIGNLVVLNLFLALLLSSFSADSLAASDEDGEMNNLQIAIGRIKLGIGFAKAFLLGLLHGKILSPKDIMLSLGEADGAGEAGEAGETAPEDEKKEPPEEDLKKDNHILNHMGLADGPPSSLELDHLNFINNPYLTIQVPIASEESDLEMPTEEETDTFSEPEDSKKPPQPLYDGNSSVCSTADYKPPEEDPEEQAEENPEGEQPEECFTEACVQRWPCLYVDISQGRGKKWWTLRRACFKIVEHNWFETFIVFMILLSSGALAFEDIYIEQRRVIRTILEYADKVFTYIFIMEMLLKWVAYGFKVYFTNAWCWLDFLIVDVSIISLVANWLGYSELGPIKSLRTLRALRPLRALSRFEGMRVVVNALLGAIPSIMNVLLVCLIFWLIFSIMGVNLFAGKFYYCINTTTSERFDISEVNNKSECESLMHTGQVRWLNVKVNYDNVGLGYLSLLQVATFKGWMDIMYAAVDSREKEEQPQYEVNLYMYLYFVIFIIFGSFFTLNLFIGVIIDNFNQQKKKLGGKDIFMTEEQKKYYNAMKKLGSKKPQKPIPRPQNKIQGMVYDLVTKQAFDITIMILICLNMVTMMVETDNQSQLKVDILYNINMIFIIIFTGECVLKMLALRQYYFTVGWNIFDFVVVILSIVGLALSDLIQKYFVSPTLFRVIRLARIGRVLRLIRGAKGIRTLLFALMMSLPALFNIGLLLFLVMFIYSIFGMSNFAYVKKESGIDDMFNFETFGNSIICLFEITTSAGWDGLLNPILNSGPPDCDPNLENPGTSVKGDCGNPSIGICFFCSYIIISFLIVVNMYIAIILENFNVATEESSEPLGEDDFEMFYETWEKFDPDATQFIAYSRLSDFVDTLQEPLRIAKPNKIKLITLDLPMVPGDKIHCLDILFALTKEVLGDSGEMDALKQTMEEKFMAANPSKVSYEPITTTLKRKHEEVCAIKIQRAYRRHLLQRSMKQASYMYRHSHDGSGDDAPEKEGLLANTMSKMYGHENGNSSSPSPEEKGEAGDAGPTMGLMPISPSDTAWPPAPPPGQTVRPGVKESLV
# UniProt P34932: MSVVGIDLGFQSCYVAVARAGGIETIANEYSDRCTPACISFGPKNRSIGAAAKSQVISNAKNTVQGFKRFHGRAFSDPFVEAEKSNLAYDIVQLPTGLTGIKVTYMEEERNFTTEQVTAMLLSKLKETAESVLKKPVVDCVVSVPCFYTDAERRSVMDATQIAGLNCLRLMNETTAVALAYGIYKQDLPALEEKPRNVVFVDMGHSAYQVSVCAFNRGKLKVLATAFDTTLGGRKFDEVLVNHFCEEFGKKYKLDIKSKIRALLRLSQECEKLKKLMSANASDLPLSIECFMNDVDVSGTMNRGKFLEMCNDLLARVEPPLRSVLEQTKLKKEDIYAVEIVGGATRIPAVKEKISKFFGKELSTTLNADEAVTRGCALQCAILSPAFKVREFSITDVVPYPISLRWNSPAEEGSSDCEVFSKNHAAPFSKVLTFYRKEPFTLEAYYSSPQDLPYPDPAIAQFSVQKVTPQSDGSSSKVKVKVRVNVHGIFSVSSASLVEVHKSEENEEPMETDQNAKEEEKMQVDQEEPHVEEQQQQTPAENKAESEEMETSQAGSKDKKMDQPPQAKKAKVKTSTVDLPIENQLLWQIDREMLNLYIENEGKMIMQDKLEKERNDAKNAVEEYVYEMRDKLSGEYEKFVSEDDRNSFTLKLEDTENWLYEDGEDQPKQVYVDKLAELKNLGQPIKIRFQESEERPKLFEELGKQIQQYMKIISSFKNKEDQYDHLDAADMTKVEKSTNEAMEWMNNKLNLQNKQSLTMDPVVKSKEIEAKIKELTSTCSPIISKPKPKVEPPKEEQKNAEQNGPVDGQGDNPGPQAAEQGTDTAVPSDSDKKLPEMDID
# UniProt P36508: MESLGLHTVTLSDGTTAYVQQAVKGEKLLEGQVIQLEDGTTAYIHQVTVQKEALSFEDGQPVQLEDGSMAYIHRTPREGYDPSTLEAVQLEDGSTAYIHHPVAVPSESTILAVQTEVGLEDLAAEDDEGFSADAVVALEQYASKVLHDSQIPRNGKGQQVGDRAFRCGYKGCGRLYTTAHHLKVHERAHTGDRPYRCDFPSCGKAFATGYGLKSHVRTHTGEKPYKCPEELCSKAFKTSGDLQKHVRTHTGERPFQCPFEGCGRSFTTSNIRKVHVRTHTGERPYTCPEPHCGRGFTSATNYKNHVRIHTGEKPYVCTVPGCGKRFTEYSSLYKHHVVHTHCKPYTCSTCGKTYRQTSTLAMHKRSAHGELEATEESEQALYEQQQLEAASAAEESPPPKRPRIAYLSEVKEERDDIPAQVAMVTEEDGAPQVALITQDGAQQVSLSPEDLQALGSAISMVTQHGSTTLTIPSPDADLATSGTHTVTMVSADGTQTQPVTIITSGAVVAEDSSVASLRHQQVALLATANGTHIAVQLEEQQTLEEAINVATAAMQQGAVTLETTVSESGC
# The other results are listed elsewhere or left out. Small differences around the control level are noise.
# Compound: CN[C@@H]1C[C@H]2O[C@@](C)([C@@H]1OC)n1c3ccccc3c3c4c(c5c6ccccc6n2c5c31)C(=O)NC4 [staurosporine]
# Assay: log2 fold change of tryptic peptide abundance, ligand vs vehicle (limited proteolysis) (log2 ratio); higher = more trypsin-susceptible (destabilized)
# Conditions: ligand concentration: 20 uM; sample: K562 cleared lysate; digestion: 4 min, 22 C (HT-PELSA RT4min, Orbitrap Astral)
row,Target,log2 fold change
1,"EIF1 (peptide sequence: NICQFLVEIGLAK, peptide start residue: 92) (UniProt P41567)",0.187
2,"IMPA1 (peptide sequence: SSPVDLVTATDQKVEK, peptide start residue: 37) (UniProt P29218)",0.261
3,"MAT2A (peptide sequence: TAAYGHFGR, peptide start residue: 374) (UniProt P31153)",0.19
4,"UniProt P38405 (peptide sequence: FQVDKVNFHMFDVGGQRDER, peptide start residue: 855)",0.466
5,"UniProt P41250 (peptide sequence: IMYTVFEHTFHVR, peptide start residue: 584)",0.205
6,"MTOR (peptide sequence: HCADHFLNSEHKEIR, peptide start residue: 605) (UniProt P42345)",-0.306
7,"ARL3 (peptide sequence: LNVWDIGGQRK, peptide start residue: 63) (UniProt P36405)",0.163
8,"ETFB (peptide sequence: YATLPNIMK, peptide start residue: 192) (UniProt P38117)",0.132
9,"MAGEB1 (peptide sequence: MKVLEFLAK, peptide start residue: 286) (UniProt P43366)",-0.361
10,"UniProt P41002 (peptide sequence: AVVHESLR, peptide start residue: 166)",0.408
11,"POLR2B (peptide sequence: LLFQELMSMSIAPR, peptide start residue: 1157) (UniProt P30876)",-0.354
12,"PSMB10 (peptide sequence: GGFSFENCQR, peptide start residue: 10) (UniProt P40306)",0.277
13,"PNPLA4 (peptide sequence: TVTISPFSGR, peptide start residue: 178) (UniProt P41247)",-0.26
14,"RRM2 (peptide sequence: EIIINAVR, peptide start residue: 291) (UniProt P31350)",-0.435
15,"HMGCL (peptide sequence: VAQATCKL, peptide start residue: 318) (UniProt P35914)",-0.196
16,"COIL (peptide sequence: QQQLNDVVK, peptide start residue: 436) (UniProt P38432)",-0.195
17,"RFC2 (peptide sequence: YRPVKLNEIVGNEDTVSR, peptide start residue: 42) (UniProt P35250)",-0.35
18,"CBX5 (peptide sequence: LTWHAYPEDAENKEK, peptide start residue: 172) (UniProt P45973)",-0.155
19,"RPL12 (peptide sequence: HSGNITFDEIVNIARQMRHR, peptide start residue: 100) (UniProt P30050)",1.28
20,"CUX1 (peptide sequence: KPSAAPEAGASALPNPPALKK, peptide start residue: 766) (UniProt P39880)",0.508
21,"SOX11 (peptide sequence: APAAAGAK, peptide start residue: 172) (UniProt P35716)",0.144
22,"NCAPD3 (peptide sequence: GSVMPSVIR, peptide start residue: 912) (UniProt P42695)",0.548
23,"UniProt P42285 (peptide sequence: VKNSEEQYNK, peptide start residue: 605)",0.306
24,"UniProt P42263 (peptide sequence: RIIEEMDRR, peptide start residue: 204)",0.331
25,"UQCRC1 (peptide sequence: NNGAGYFLEHLAFK, peptide start residue: 86) (UniProt P31930)",0.312
26,"SCN4A (peptide sequence: AFLLGLLHGK, peptide start residue: 838) (UniProt P35499)",0.464
27,"HSPA4 (peptide sequence: QDLPALEEKPR, peptide start residue: 186) (UniProt P34932)",-0.829
28,"ZNF76 (peptide sequence: FTEYSSLYK, peptide start residue: 398) (UniProt P36508)",-0.132

# An excerpt of these results, bar-delimited:
row | Target | log2 fold change
4 | UniProt P38405 (peptide sequence: FQVDKVNFHMFDVGGQRDER, peptide start residue: 855) | 0.466
5 | UniProt P41250 (peptide sequence: IMYTVFEHTFHVR, peptide start residue: 584) | 0.205
